According to patent EP4442275A1, “ANTI-TYPE II COLLAGEN ANTIBODIES” (ModiQuest B.V., priority 2023, dated 2024):
Results are given in words; binding and its absence hold for the method and conditions named. Some binding calls cover weakened binding; strength is not graded here.

Amino acid sequences for entries named in this document (tags omitted). Residues count along the entry.
UniProt P02459, residues 182-1241: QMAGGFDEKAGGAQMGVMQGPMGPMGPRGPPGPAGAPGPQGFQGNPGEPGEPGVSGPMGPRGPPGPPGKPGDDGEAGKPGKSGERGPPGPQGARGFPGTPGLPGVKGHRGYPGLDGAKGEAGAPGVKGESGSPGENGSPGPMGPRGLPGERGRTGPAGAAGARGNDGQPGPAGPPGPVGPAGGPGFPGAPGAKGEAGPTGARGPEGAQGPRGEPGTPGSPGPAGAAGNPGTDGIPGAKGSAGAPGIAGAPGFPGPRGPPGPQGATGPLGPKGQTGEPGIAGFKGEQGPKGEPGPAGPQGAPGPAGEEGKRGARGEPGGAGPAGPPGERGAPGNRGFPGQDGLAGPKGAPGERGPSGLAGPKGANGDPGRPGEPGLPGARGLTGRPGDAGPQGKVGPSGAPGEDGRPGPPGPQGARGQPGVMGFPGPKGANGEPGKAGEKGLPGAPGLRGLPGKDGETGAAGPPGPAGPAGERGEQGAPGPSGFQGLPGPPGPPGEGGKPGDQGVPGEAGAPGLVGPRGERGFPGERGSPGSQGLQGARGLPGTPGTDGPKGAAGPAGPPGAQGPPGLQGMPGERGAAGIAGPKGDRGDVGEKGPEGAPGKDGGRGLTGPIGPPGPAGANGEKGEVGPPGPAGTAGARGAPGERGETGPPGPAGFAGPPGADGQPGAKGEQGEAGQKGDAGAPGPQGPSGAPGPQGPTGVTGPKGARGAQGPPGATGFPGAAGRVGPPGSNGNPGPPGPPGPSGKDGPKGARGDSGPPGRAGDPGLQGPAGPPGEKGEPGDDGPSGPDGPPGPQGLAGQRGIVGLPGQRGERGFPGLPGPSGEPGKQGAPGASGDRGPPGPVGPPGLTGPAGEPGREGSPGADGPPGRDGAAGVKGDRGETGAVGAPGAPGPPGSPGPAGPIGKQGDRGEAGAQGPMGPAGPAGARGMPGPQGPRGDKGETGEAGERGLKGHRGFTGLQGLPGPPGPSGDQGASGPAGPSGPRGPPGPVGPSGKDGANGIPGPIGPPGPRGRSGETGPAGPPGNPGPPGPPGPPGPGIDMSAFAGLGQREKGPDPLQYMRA
UniProt P02458, residues 182-1241: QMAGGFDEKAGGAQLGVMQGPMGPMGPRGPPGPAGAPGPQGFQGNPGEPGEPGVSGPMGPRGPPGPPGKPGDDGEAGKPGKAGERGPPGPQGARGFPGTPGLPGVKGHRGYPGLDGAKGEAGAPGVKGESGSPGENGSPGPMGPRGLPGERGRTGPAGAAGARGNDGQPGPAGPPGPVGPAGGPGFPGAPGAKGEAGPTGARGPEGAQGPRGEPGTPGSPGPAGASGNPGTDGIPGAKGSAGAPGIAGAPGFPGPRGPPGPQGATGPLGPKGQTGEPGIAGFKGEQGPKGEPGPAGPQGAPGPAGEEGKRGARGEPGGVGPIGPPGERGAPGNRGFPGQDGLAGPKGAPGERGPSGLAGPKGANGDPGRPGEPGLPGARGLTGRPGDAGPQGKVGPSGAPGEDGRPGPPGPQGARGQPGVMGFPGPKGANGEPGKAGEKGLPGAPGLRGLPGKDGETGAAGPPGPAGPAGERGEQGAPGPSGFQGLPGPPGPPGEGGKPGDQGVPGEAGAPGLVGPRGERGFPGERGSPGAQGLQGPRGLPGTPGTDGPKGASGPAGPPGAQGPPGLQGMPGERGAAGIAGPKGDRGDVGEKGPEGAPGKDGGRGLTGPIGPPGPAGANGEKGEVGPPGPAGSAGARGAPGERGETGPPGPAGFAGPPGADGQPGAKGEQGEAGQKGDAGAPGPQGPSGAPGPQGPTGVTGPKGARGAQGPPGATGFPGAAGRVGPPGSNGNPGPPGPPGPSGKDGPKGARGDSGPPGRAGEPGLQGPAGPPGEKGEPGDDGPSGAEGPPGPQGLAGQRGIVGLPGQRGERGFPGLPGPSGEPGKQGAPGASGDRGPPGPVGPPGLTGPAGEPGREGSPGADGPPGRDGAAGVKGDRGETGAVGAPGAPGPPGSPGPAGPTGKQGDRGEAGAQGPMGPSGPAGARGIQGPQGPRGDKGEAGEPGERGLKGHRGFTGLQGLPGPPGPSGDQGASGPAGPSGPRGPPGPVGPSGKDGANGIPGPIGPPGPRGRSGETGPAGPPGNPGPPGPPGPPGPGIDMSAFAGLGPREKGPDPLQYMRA

Tests used:
[1] = molecular target: Bovine Collagen type II (bovine) (UniProt P02459); assay: ELISA on coated bovine collagen type II, anti-human IgG-HRP
[2] = molecular target: Bovine Collagen type II (bovine) (UniProt P02459); assay: Fig 6A legend: HRP/DAB staining of bovine cartilage punches, untreated or trypsin-treated
[3] = molecular target: Bovine Collagen type II (bovine) (UniProt P02459); assay: HRP/DAB staining of bovine cartilage punches, 5 µg/ml primary antibody (Example 4)
[4] = molecular target: Bovine Collagen type II (bovine) (UniProt P02459); assay: 111In-DTPA-labelled antibody (4 µg/ml) on bovine cartilage explants, gamma counting (Example 5)
[5] = molecular target: Bovine Collagen type II (bovine) (UniProt P02459); assay: ELISA on coated collagen type II (Figure 3, bovine), anti-human IgG-HRP
[6] = molecular target: Human collagen Type II (human) (UniProt P02458); assay: Fig 8 legend: 111In-DTPA-labelled antibody on human cartilage explants, gamma counting
[7] = molecular target: Human collagen Type II (human) (UniProt P02458); assay: DTPA-IrDye 800CW-labelled antibody (4 µg/ml) on human OA cartilage of different damage stages, Odyssey imaging (Example 8)
[8] = molecular target: Bovine Collagen type II (bovine) (UniProt P02459); assay: 111In-DTPA-labelled antibody on bovine cartilage explants, gamma counting (Example 5)
[9] = molecular target: Human collagen Type II (human) (UniProt P02458); assay: in vivo: labelled antibody injected i.v. into SCID mice with human cartilage implants; IVIS imaging and gamma counting (Example 7)
[10] = molecular target: Human collagen Type II (human) (UniProt P02458); assay: in vivo: labelled antibody injected i.v. into SCID mice with human cartilage implants (Example 7)
[11] = molecular target: Human collagen Type II (human) (UniProt P02458); assay: Fig 9 legend: fluorescence of labelled antibody on human cartilage explants with or without trypsin
[12] = molecular target: Human collagen Type II (human) (UniProt P02458); assay: 111In-DTPA-labelled antibody on human cartilage explants, gamma counting (Example 5)
[13] = molecular target: Human collagen Type II (human) (UniProt P02458); assay: Fig 11 legend: fluorescence of labelled antibody on human OA cartilage explants
[14] = molecular target: Human collagen Type II (human) (UniProt P02458); assay: Fig 10 legend: in vivo IVIS imaging of human cartilage implants in SCID mice
[15] = molecular target: Bovine Collagen type II (bovine) (UniProt P02459); assay: 111In-DTPA-labelled antibody on trypsin-damaged bovine cartilage explants, gamma counting (Example 5)
[16] = molecular target: Human collagen Type II (human) (UniProt P02458); assay: 111In-DTPA-labelled antibody (4 µg/ml) on human cartilage explants, gamma counting (Example 5)
[17] = molecular target: Human collagen Type II (human) (UniProt P02458); assay: DTPA-IrDye 800CW-labelled antibody (4 µg/ml) on human cartilage explants, Odyssey near infrared imaging (Example 6)
[18] = molecular target: Bovine Collagen type II (bovine) (UniProt P02459); assay: ELISA on coated bovine collagen type II
[19] = molecular target: Bovine Collagen type II (bovine) (UniProt P02459); assay: Fig 1 legend: 125I-labelled antibody on trypsin-damaged bovine cartilage explants
[20] = molecular target: Bovine Collagen type II (bovine) (UniProt P02459); assay: 125I-labelled antibody on trypsin-damaged bovine cartilage explants, gamma counting
[21] = molecular target: Bovine Collagen type II (bovine) (UniProt P02459); assay: ELISA on coated bovine collagen type II, anti-mouse IgG-HRP
[22] = molecular target: Bovine Collagen type II (bovine) (UniProt P02459); assay: ELISA on coated collagen type II (Figure 3, bovine), anti-mouse IgG-HRP; the filing warns that the different secondary antibody could cause the difference
[23] = molecular target: Bovine Collagen type II (bovine) (UniProt P02459); assay: 111In-DTPA-labelled antibody on untreated bovine cartilage explants, gamma counting (Example 5)
[24] = molecular target: Bovine Collagen type II (bovine) (UniProt P02459); assay: Fig 7 legend: weight-corrected cartilage-associated radioactivity, bovine explants

Measured: binding

B1: MQ4.112m_1_1 (antibody, V domains shown)
VH: DVQLQESGPGLVKPSQSLSLTCSVTGYSITSDYYWHWIRQFPGNKLEWMGYISYDGSNNYNPSLKNRISITRDTSKNQFFLKLNSVTTEDTATYYCARDDDAMDYWGQGTSVTVSS
VL: DIQMTQTTSSLSASLGDRVTISCRASQDISNYLNWYQQKPDGTVKLLIYYTSRLHSGVPSRFSGSGSGTDYSLTISNLEQEDIATYFCQQGNTLPPTFGGGTKLEIK
binds: [1] | [2] | [3] | [4]

B2: MQ4.112hz_1_1 (antibody, V domains shown)
VH: QVQLQESGPGLVKPSETLSLTCAVSGYSITSDYYWHWIRQPPGKGLEWMGYISYDGSNNYNPSLKSRVTISVDTSKNQFSLKLSSVTAADTAVYYCARDDDAMDYWGQGTLVTVSS
VL: DIQMTQSPSSLSASVGDRVTITCRASQDISNYLNWYQQKPGKAPKLLIYYTSRLHSGVPSRFSGSGSGTDFTFTISSLQPEDIATYYCQQGNTLPPTFGQGTKVEIK
binds: [1] | [5]

B3: MQ4.112hz_1_2 (antibody, V domains shown)
VH: QVQLQESGPGLVKPSETLSLTCAVSGYSITSDYYWHWIRQPPGKGLEWMGYISYDGSNNYNPSLKSRVTISVDTSKNQFSLKLSSVTAADTAVYYCARDDDAMDYWGQGTLVTVSS
VL: DIQMTQSPSSLSASVGDRVTITCRASQDISNYLNWYQQKPGKAPKLLIYYTSRLHSGVPSRFSGSGSGTDFTFTISSLQYEDIATYYCQQGNTLPPTFGQGTKVEIK
binds: [1] | [5]

B4: MQ4.112hz_2_1 (antibody, V domains shown)
VH: DVQLQESGPGLVKPSETLSLTCAVSGYSITSDYYWHWIRQPPGKGLEWMGYISYDGSNNYNPSLKSRVTISVDTSKNQFSLKLSSVTAADTAVYYCARDDDAMDYWGQGTLVTVSS
VL: DIQMTQSPSSLSASVGDRVTITCRASQDISNYLNWYQQKPGKAPKLLIYYTSRLHSGVPSRFSGSGSGTDFTFTISSLQPEDIATYYCQQGNTLPPTFGQGTKVEIK
binds: [1] | [5]

B5: MQ4.112hz_2_2 (antibody, IgG1, V domains shown)
VH: DVQLQESGPGLVKPSETLSLTCAVSGYSITSDYYWHWIRQPPGKGLEWMGYISYDGSNNYNPSLKSRVTISVDTSKNQFSLKLSSVTAADTAVYYCARDDDAMDYWGQGTLVTVSS
VL: DIQMTQSPSSLSASVGDRVTITCRASQDISNYLNWYQQKPGKAPKLLIYYTSRLHSGVPSRFSGSGSGTDFTFTISSLQYEDIATYYCQQGNTLPPTFGQGTKVEIK
binds: [1] | [5]

B6: MQ4.112hz_3_1 (antibody, V domains shown)
VH: DVQLQESGPGLVKPSETLSLTCAVSGYSITSDYYWHWIRQFPGKGLEWMGYISYDGSNNYNPSLKSRVTISVDTSKNQFSLKLSSVTAADTAVYYCARDDDAMDYWGQGTLVTVSS
VL: DIQMTQSPSSLSASVGDRVTITCRASQDISNYLNWYQQKPGKAPKLLIYYTSRLHSGVPSRFSGSGSGTDFTFTISSLQPEDIATYYCQQGNTLPPTFGQGTKVEIK
not listed: [18] | [19] | [20] | [21] | [22] | [23] | [24]
binds: all other assays above

B7: MQ4.112hz_3_2 (antibody, V domains shown)
VH: DVQLQESGPGLVKPSETLSLTCAVSGYSITSDYYWHWIRQFPGKGLEWMGYISYDGSNNYNPSLKSRVTISVDTSKNQFSLKLSSVTAADTAVYYCARDDDAMDYWGQGTLVTVSS
VL: DIQMTQSPSSLSASVGDRVTITCRASQDISNYLNWYQQKPGKAPKLLIYYTSRLHSGVPSRFSGSGSGTDFTFTISSLQYEDIATYYCQQGNTLPPTFGQGTKVEIK
binds: [1] | [5]

B8: MQ4.112hz_4_1 (antibody, V domains shown)
VH: DVQLQESGPGLVKPSETLSLTCAVSGYSITSDYYWHWIRQFPGKGLEWMGYISYDGSNNYNPSLKSRVTISRDTSKNQFSLKLSSVTAADTAVYYCARDDDAMDYWGQGTLVTVSS
VL: DIQMTQSPSSLSASVGDRVTITCRASQDISNYLNWYQQKPGKAPKLLIYYTSRLHSGVPSRFSGSGSGTDFTFTISSLQPEDIATYYCQQGNTLPPTFGQGTKVEIK
binds: [1] | [5]

B9: MQ4.112hz_4_2 (antibody, V domains shown)
VH: DVQLQESGPGLVKPSETLSLTCAVSGYSITSDYYWHWIRQFPGKGLEWMGYISYDGSNNYNPSLKSRVTISRDTSKNQFSLKLSSVTAADTAVYYCARDDDAMDYWGQGTLVTVSS
VL: DIQMTQSPSSLSASVGDRVTITCRASQDISNYLNWYQQKPGKAPKLLIYYTSRLHSGVPSRFSGSGSGTDFTFTISSLQYEDIATYYCQQGNTLPPTFGQGTKVEIK
binds: [1] | [5]

B10: MQ4.117 (antibody, V domains shown)
VH: QVQLQQPGAELVKPGASVKMSCKTSGYTFTSCNMHWVKQTPGQGLEWIGAVYPGNGDTSYNQKFKGKATLTADKSSSTAYMQLSSLTSEDSAVYYCARGKRDAMDYWGQGTSVTVSS
VL: DIVLTQSPASLAVSLGQRATISCRASESVDSYGNSFMHWYQQKPGQPPKLLIYRASNLESGIPARFSGSGSRTDFTLTINPVEADDVATYYCQQSNEDPLTFGAGTKLELK
binds: [8] | [18] | [19] | [20] | [2] | [21] | [22] | [23] | [4]

B11: MQ4.117m_1_1 (antibody, IgG1, V domains shown)
VH: QVQLQQPGAELVKPGASVKMSCKTSGYTFTSCNMHWVKQTPGQGLEWIGAVYPGNGDTSYNQKFKGKATLTADKSSSTAYMQLSSLTSEDSAVYYCARGKRDAMDYWGQGTSVTVSS
VL: DIVLTQSPASLAVSLGQRATISCRASESVDSYGNSFMHWYQQKPGQPPKLLIYRASNLESGIPARFSGSGSRTDFTLTINPVEADDVATYYCQQSNEDPLTFGAGTKLELK
binds: [1] | [2] | [4]

B12: MQ4.117hz_1_2 (antibody, V domains shown)
VH: QVQLVQSGAEVKKPGASVKVSCKASGYTFTSCNMHWVRQAPGQRLEWIGAVYPGNGDTSYNQKFQGRVTITRDTSASTAYMELSSLRSEDTAVYYCARGKRDAMDYWGQGTLVTVSS
VL: DIVMTQTPLSLSVTPGQRASISCRASESVDSYGNSFMHWYLQKPGQPPQLLIYRASNLESGVPDRFSGSGSGTDFTLKISRVEAEDVGVYYCQQSNEDPLTFGQGTKVEIK
binds: [1] | [5] | [2] | [4]

B13: MQ4.112 (antibody, V domains shown)
VH: DVQLQESGPGLVKPSQSLSLTCSVTGYSITSDYYWHWIRQFPGNKLEWMGYISYDGSNNYNPSLKNRISITRDTSKNQFFLKLNSVTTEDTATYYCARDDDAMDYWGQGTSVTVSS
VL: DIQMTQTTSSLSASLGDRVTISCRASQDISNYLNWYQQKPDGTVKLLIYYTSRLHSGVPSRFSGSGSGTDYSLTISNLEQEDIATYFCQQGNTLPPTFGGGTKLEIK
binds: [24] | [8] | [18] | [19] | [20] | [2] | [21] | [3] | [4]
